The text below walks through data of PMC9614494.

Results are given in words; binding and its absence hold for the method and conditions named. Binding calls can cover weak binding; strength is not graded here.

In this assay the target is T1, recombinant GBP of the cross-linking experiment (Arabidopsis thaliana) (UniProt Q9LU39).
T1 sequence: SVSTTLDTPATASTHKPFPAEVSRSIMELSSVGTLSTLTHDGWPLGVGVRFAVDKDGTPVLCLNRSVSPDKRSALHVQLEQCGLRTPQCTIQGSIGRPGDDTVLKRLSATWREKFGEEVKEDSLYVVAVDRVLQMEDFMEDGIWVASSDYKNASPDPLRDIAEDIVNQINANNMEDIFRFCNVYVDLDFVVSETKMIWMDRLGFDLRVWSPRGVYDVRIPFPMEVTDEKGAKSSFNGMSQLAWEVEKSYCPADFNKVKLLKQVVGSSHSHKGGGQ
Put plainly: cross-linking; all three recombinant proteins (GluTR, GBP, GSAAT) mixed together, 1 mM DSSO in PBS, 1 h, room temperature, trypsin, LC-MS/MS, MaxQuant; both purified.

On to “recombinant 6xHis-GSAAT (Arabidopsis thaliana) (enzyme)”, for which the binding entry is “binds”.
